In patent US4691008 (dated 1987):

Assay: general procedure: solution-phase peptide synthesis
Conditions: coupling step, Tos-OH salt

Substance: Z-Trp-Ser-Tyr-D-Ser(Bu^t)-Leu-Arg-Pro-NHEt*Tos-OH
- step yield (T2 r4): 85-90%
- step yield (T2 r6): 70-80%
- step yield (run 1): 72% of theory
